Source: patent US20050215555A1, “Inhibitors of 5-HT2A receptor” (priority 2003, published 2005)
Some of these results come from one statement about several compounds together.

Amino acid sequences for entries named in this document (tags omitted).
UniProt P28223, whole entry: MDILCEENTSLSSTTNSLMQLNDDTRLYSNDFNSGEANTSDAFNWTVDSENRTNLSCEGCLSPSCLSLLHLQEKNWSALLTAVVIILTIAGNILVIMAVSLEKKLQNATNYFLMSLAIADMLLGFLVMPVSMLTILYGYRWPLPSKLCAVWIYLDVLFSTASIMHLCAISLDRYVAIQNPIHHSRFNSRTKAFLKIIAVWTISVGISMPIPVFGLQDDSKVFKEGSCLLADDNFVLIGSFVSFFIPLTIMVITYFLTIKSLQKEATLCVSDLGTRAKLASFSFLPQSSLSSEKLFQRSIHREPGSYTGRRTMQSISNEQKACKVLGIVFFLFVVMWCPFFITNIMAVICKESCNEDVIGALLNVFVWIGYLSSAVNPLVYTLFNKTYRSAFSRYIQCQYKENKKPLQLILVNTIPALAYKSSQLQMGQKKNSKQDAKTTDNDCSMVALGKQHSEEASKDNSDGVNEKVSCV

Biological target: 5-HT2A (Homo sapiens, UniProt P28223)
Assay: Radioligand displacement binding (3H-5-HT), SPA or filter binding
Set-up: expressed in transfected cells; host or cells: CHO or HEK293
Details: 5-HT2A versus 5-HT2C, 5-HT2B, 5-HT1A, 5-HT6 and 5-HT1B
Experimental: The affinity constants of compounds were determined using recombinant human serotonin receptors stably expressed in fibroblast cell lines (CHO or HEK293), measuring the ability of the compounds to displace radio-labelled tracers using scintillation proximity assays or filter binding assays. For 5-HT1B , 5-HT2B and 5-HT2C receptor binding studies ^3H-LSD was used as radio ligand, for 5-HT2 A and 5-HT6 ^3H-5-HT was used as tracer, while the binding constant to 5-HT1A was determined using ^3H-8-OH-DPAT. The non-selective serotonin receptor antagonist mianserine was used as reference substance.
The calculation of the Ki values for the inhibitors was performed by use of Activity Base. The Ki value is calculated from IC50 using the Cheng Prushoff equation (with reversible inhibition that follows the Michaelis-Menten equation): […] [Cheng, Y. C.; Prushoff, W. H. Biochem. Pharmacol. 1973, 22, 3099-3108].

SMILES | fold selective over five other serotonin receptors assayed
c1ccc(CCN2CCC(c3nc(-c4ccccc4)c4ccccn34)CC2)cc1 [Example 2] | at least 20 fold
Cc1ccn2c(C3CCN(CCc4ccccc4)CC3)nc(-c3ccccc3)c2c1 [Example 4, 7-methyl-1-phenyl-3-[1-(2-phenylethyl)piperidin-4-yl]imidazo[1,5-a]pyridine] | at least 20 fold
